The record followed here is publication PMC12280988.

This test concerns the target T1, CKLF-like MARVEL transmembrane domain containing 3 (CMTM3), wild type (UniProt Q96MX0).
T1 sequence: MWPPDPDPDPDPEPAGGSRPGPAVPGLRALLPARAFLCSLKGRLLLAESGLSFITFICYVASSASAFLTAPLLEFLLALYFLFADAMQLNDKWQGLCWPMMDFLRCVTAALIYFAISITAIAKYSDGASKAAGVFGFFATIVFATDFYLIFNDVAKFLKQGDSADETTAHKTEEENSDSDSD
The test can be described thus: co-IP; HEK 293 cells transfected with CMTM3 and deleted PPARγ forms; precipitation with anti-Myc, immunoblotting with anti-Myc and anti-HA. On the technique in general: A western blot detects proteins with antibodies after separation by electrophoresis.

Results are given in words; binding and its absence hold for the method and conditions named. In cells and extracts the contact can be indirect. Binding can be weak; no strength is given.

As to “PPARγ ligand binding domain (LBD) deletion form (domain or fragment)”, the binding result is “binds”.
